Data reported in the supplement of paper PMC6411743.
± gives the standard deviation of the averaged measurements. The entries are a selection whose mix differs from that of the whole data set.

Sequences of proteins named here, by UniProt entry; tags and fusion partners are left off. A change or cut given only in a name is not applied to a line headed by its entry.
UniProt Q96RR4, whole entry, looked up: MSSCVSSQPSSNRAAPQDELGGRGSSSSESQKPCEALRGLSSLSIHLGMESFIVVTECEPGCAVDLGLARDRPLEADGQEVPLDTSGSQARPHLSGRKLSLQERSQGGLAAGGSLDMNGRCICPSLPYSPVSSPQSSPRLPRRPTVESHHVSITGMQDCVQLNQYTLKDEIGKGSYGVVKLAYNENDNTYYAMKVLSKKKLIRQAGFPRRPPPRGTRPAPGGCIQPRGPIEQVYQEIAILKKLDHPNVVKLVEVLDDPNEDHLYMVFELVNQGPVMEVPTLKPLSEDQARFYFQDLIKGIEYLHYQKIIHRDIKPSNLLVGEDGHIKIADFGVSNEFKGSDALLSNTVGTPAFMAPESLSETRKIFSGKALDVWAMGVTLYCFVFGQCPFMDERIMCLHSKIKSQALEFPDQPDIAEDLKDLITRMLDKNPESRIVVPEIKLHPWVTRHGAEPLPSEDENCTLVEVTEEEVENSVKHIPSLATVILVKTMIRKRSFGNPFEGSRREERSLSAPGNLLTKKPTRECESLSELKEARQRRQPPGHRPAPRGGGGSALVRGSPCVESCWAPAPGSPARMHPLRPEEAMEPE
UniProt Q96CN9: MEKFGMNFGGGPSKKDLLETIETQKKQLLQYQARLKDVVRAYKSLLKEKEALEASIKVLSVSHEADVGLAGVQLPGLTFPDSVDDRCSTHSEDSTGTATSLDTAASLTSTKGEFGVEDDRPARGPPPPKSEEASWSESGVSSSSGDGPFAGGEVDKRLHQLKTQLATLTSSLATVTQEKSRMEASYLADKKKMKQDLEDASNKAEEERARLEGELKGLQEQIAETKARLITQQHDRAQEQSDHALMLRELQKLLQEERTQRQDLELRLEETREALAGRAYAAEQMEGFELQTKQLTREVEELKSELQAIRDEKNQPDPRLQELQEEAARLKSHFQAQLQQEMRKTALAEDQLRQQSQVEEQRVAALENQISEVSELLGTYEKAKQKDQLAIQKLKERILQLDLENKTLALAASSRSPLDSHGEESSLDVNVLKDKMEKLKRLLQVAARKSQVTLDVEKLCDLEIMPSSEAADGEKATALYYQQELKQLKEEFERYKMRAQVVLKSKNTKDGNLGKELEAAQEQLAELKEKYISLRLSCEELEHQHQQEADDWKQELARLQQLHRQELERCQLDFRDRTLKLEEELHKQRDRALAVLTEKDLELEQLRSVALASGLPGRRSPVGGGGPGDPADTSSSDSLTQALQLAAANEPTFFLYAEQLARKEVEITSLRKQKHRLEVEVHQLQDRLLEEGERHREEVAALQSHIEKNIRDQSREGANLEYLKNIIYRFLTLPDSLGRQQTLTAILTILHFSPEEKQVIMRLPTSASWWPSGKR
UniProt Q96G03: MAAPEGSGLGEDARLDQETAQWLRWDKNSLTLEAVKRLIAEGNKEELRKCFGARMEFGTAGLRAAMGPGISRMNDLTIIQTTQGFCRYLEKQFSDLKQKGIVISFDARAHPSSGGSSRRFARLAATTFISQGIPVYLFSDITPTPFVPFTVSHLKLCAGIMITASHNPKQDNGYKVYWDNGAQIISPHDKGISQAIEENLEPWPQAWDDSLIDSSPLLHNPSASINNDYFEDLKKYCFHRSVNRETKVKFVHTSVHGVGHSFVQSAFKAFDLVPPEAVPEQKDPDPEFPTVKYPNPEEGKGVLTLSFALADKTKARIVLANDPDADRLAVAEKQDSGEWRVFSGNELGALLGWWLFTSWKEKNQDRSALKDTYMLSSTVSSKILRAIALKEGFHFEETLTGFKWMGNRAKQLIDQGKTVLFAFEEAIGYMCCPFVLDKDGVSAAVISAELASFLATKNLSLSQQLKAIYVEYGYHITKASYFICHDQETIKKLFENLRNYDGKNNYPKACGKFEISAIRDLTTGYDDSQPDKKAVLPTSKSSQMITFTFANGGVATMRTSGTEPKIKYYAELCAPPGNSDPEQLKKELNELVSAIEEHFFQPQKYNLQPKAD
UniProt Q96L93: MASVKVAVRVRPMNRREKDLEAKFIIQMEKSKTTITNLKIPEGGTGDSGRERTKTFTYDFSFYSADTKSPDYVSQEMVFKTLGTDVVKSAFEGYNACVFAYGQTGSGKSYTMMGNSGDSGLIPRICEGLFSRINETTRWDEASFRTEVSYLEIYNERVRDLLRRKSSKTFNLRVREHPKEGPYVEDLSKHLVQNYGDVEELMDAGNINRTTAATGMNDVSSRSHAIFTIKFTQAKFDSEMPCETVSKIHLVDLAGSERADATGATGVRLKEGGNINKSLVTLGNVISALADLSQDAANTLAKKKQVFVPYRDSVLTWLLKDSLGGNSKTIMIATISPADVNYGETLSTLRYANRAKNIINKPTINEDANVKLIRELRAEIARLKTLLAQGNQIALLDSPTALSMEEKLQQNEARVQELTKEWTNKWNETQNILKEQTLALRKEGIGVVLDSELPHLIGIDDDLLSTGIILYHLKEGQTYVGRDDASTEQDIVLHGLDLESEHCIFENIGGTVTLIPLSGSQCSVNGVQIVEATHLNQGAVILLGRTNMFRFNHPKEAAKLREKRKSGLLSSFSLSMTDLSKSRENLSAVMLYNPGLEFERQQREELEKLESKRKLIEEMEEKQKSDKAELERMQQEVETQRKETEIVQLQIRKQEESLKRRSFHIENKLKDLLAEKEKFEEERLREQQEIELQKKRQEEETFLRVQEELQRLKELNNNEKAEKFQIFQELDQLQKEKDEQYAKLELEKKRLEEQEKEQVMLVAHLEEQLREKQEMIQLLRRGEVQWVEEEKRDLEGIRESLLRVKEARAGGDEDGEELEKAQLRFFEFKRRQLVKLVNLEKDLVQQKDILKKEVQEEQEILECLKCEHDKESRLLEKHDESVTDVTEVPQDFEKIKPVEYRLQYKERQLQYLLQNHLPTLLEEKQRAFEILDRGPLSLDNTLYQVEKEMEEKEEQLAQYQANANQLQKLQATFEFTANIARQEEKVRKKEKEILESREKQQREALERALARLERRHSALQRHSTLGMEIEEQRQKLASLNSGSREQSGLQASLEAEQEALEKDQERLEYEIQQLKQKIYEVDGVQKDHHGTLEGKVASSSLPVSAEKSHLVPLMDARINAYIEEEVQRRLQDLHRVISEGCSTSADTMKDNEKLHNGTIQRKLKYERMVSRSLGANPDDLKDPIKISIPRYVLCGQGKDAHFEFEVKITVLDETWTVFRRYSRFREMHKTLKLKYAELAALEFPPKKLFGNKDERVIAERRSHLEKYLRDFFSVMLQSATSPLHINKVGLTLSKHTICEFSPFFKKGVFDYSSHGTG
UniProt Q96SD1, whole entry: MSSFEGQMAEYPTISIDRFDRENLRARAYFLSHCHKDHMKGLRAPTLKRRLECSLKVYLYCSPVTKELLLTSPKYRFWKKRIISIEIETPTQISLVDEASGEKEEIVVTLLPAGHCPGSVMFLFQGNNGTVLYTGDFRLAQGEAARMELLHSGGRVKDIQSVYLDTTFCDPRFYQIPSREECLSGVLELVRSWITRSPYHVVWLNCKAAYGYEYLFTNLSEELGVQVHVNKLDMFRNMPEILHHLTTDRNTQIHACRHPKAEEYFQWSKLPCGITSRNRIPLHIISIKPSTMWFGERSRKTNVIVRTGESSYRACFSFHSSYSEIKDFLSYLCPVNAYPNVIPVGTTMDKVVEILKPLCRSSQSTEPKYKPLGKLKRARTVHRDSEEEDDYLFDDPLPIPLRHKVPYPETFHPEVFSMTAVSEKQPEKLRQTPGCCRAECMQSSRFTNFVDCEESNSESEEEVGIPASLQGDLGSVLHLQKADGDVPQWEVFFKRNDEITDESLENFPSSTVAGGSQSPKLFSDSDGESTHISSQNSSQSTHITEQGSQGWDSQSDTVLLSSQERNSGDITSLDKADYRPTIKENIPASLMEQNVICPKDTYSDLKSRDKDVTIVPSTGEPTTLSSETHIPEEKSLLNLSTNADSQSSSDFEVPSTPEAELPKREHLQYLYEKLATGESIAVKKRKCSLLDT
UniProt Q96KR1: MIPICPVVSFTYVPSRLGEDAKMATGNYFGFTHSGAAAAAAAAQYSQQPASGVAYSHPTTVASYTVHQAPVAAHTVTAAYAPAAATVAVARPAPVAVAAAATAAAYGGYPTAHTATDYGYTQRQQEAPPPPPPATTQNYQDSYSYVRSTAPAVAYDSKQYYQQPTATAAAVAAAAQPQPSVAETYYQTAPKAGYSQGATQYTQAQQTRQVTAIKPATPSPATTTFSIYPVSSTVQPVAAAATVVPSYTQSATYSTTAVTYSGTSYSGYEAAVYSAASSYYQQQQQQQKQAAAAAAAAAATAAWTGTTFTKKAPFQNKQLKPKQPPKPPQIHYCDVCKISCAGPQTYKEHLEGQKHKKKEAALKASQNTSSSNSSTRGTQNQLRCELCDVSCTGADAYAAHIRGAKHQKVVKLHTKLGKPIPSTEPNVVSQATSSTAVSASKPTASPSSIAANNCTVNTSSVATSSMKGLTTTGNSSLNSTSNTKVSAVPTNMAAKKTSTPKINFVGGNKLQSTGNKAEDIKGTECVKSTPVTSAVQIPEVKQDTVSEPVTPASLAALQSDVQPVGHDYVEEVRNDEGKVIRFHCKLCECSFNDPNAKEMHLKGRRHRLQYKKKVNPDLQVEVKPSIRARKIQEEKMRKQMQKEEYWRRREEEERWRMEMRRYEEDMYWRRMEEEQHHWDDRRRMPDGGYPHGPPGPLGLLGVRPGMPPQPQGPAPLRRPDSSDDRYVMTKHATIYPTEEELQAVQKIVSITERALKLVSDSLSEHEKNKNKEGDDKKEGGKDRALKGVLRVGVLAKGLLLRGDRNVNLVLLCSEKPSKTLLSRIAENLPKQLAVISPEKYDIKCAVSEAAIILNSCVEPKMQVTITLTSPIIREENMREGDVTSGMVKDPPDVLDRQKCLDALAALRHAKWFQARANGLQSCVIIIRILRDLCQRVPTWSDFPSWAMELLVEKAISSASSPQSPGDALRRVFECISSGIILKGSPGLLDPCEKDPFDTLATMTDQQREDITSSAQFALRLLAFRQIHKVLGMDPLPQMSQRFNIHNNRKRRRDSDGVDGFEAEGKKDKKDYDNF
UniProt Q96RN5: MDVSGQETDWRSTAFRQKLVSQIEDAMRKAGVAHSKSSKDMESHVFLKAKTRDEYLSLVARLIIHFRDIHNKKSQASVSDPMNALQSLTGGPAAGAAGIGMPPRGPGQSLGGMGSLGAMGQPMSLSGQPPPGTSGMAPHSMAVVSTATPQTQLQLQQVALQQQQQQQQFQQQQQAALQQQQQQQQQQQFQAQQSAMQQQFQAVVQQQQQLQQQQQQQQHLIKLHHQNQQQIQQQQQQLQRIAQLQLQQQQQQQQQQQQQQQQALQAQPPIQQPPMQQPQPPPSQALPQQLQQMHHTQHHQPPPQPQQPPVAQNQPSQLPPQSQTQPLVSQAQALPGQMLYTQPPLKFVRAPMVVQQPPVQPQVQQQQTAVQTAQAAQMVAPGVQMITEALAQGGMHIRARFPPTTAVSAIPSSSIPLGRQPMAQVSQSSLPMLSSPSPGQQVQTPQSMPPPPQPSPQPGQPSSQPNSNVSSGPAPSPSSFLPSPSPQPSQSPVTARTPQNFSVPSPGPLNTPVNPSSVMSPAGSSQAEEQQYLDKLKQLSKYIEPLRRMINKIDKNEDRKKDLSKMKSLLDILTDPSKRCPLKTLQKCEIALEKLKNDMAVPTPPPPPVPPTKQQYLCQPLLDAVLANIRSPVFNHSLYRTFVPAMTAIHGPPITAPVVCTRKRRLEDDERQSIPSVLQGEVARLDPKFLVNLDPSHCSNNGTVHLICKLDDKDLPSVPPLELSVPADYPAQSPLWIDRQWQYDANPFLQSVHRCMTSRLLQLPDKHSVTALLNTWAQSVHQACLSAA
UniProt Q96M27: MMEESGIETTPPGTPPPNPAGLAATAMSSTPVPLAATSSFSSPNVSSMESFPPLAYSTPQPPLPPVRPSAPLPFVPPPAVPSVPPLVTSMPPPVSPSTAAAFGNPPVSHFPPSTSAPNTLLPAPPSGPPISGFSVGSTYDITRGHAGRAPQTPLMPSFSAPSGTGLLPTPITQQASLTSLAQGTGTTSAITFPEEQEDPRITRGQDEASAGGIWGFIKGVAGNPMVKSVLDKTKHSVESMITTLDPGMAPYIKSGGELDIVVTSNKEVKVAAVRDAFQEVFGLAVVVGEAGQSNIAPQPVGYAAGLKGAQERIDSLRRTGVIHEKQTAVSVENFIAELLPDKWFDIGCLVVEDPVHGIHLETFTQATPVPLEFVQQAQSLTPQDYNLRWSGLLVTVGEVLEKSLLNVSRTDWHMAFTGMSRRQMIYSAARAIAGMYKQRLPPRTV
UniProt Q96SZ5, whole entry: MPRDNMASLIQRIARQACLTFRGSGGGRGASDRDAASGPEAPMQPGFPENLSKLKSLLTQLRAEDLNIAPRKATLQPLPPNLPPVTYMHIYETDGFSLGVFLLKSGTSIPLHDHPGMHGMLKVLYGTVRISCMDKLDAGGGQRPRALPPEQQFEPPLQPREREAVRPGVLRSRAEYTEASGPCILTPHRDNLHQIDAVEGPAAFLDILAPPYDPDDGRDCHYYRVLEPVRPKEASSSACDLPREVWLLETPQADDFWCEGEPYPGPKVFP

Compound: Nc1ncnc2c1ncn2[C@@H]1O[C@H](COP(=O)(O)OP(=O)(O)OP(=O)(O)O)[C@@H](O)[C@H]1O [adenosine triphosphate]
Assay: NP40-soluble protein abundance relative to vehicle (solubility fold change) (ratio); higher = more soluble protein in presence of ATP
Outline: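 Values are fold changes against the detergent-processed vehicle, based on vsn-normalised intensities. Jurkat crude lysate was treated at eight concentrations from 0.1 to 10 mM (10 min at room temperature, then 3 min at 37 °C), solubilised with 0.8% NP40 and benzonase, ultracentrifuged and analysed by TMT-labelled LC-MS/MS over three independent experiments.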

Target	NP40-soluble protein abundance (concentration: 1mM)	NP40-soluble protein abundance (concentration: 2mM)	NP40-soluble protein abundance (concentration: 4mM)	NP40-soluble protein abundance (concentration: 6mM)	NP40-soluble protein abundance (concentration: 8mM)	NP40-soluble protein abundance (concentration: 10mM)
FAM136A (UniProt Q96C01)	0.932 ± 0.12	0.955 ± 0.075	0.943 ± 0.037	0.983 ± 0.093	0.922 ± 0.011	0.856 ± 0.11
UniProt Q96S97 and related entries	1.06 ± 0.074	1.05 ± 0.02	1.01 ± 0.075	0.944 ± 0.042	1.02 ± 0.016	1.05 ± 0.034
UniProt Q96FZ2	0.99 ± 0.047	1 ± 0.018	0.985 ± 0.025	1.02 ± 0.055	0.971 ± 0.057	0.977 ± 0.036
UniProt Q96EP0 and related entries	0.9666 ± 0.0096	0.986 ± 0.025	0.964 ± 0.027	0.976 ± 0.059	0.964 ± 0.046	0.985 ± 0.036
UniProt Q96IG2 and related entries	0.988 ± 0.092	0.985 ± 0.066	0.995 ± 0.043	0.954 ± 0.072	0.983 ± 0.021	1.01 ± 0.058
DHRS1 (UniProt Q96LJ7)	1.07 ± 0.051	1.02 ± 0.017	1.03 ± 0.018	1.04 ± 0.027	0.981 ± 0.082	0.972 ± 0.027
UniProt Q96BW5 and related entries	1.02 ± 0.052	1.01 ± 0.043	0.993 ± 0.044	0.96 ± 0.08	0.981 ± 0.042	0.988 ± 0.047
ZBTB10 (UniProt Q96DT7)	0.918 ± 0.069	0.988 ± 0.026	0.959 ± 0.098	0.967 ± 0.055	0.918 ± 0.025	0.914 ± 0.031
UniProt Q96RR4 and related entries	1.05 ± 0.043	1.04 ± 0.026	1 ± 0.028	1.03 ± 0.041	1 ± 0.012	1.02 ± 0.033
GCC1 (UniProt Q96CN9)	0.95 ± 0.031	0.979 ± 0.019	0.968 ± 0.033	0.984 ± 0.02	0.928 ± 0.016	0.923 ± 0.025
UniProt Q96IZ7 and related entries	1.5 ± 0.15	1.5 ± 0.22	1.47 ± 0.19	1.67 ± 0.22	1.56 ± 0.17	1.69 ± 0.24
UniProt Q96HD1 and related entries	1.05 ± 0.09	1.01 ± 0.085	1.01 ± 0.079	1.01 ± 0.088	1.03 ± 0.084	1.04 ± 0.099
SIPA1 (UniProt Q96FS4)	0.967 ± 0.046	0.988 ± 0.022	1.04 ± 0.04	1.03 ± 0.071	1.08 ± 0.06	1.11 ± 0.014
CCDC43 (UniProt Q96MW1)	0.902 ± 0.089	0.911 ± 0.013	0.919 ± 0.046	0.944 ± 0.047	0.937 ± 0.029	0.866 ± 0.062
UniProt Q96EB1 and related entries	0.979 ± 0.017	0.961 ± 0.031	0.951 ± 0.045	0.945 ± 0.036	0.941 ± 0.045	0.965 ± 0.037
WDR89 (UniProt Q96FK6)	1.17 ± 0.047	1.17 ± 0.035	1.21 ± 0.06	1.27 ± 0.093	1.29 ± 0.14	1.33 ± 0.11
KTI12 (UniProt Q96EK9)	0.986 ± 0.12	1 ± 0.019	1.03 ± 0.099	0.999 ± 0.065	1.05 ± 0.057	0.974 ± 0.06
VPS35 (UniProt Q96QK1)	0.971 ± 0.071	0.968 ± 0.073	0.95 ± 0.018	0.889 ± 0.084	0.941 ± 0.036	0.958 ± 0.035
SPAG5 (UniProt Q96R06)	1.02 ± 0.034	1.03 ± 0.035	1.03 ± 0.013	1.05 ± 0.049	1 ± 0.022	1.05 ± 0.018
RSPRY1 (UniProt Q96DX4)	1.08 ± 0.2	1.07 ± 0.12	1.05 ± 0.061	1.04 ± 0.085	1.09 ± 0.075	1.09 ± 0.18

Full records, quoted from the list.
VPS35 (UniProt Q96QK1) is listed with NP40-soluble protein abundance (concentration: 1mM): 0.971 ± 0.071; NP40-soluble protein abundance (concentration: 2mM): 0.968 ± 0.073; NP40-soluble protein abundance (concentration: 4mM): 0.95 ± 0.018; NP40-soluble protein abundance (concentration: 6mM): 0.889 ± 0.084; NP40-soluble protein abundance (concentration: 8mM): 0.941 ± 0.036; NP40-soluble protein abundance (concentration: 10mM): 0.958 ± 0.035
SPAG5 (UniProt Q96R06) is listed with NP40-soluble protein abundance (concentration: 1mM): 1.02 ± 0.034; NP40-soluble protein abundance (concentration: 2mM): 1.03 ± 0.035; NP40-soluble protein abundance (concentration: 4mM): 1.03 ± 0.013; NP40-soluble protein abundance (concentration: 6mM): 1.05 ± 0.049; NP40-soluble protein abundance (concentration: 8mM): 1 ± 0.022; NP40-soluble protein abundance (concentration: 10mM): 1.05 ± 0.018

(listing goes on)

Target	NP40-soluble protein abundance (concentration: 1mM)	NP40-soluble protein abundance (concentration: 2mM)	NP40-soluble protein abundance (concentration: 4mM)	NP40-soluble protein abundance (concentration: 6mM)	NP40-soluble protein abundance (concentration: 8mM)	NP40-soluble protein abundance (concentration: 10mM)
UniProt Q96QU8 and related entries	1.02 ± 0.012	1.03 ± 0.055	1.02 ± 0.02	0.962 ± 0.097	0.971 ± 0.013	1.03 ± 0.046
NSUN4 (UniProt Q96CB9)	1.01 ± 0.17	1.02 ± 0.13	1.09 ± 0.13	1.06 ± 0.17	1.19 ± 0.12	1.26 ± 0.11
UniProt Q96G03 and related entries	0.991 ± 0.11	0.962 ± 0.091	0.941 ± 0.067	0.909 ± 0.13	0.943 ± 0.06	0.947 ± 0.075
KCTD12 (UniProt Q96CX2)	0.932 ± 0.01	0.932 ± 0.013	0.968 ± 0.074	0.925 ± 0.019	0.901 ± 0.072	0.92 ± 0.017
CDKN2AIPNL (UniProt Q96HQ2)	0.909 ± 0.022	0.922 ± 0.099	0.951 ± 0.071	0.972 ± 0.068	0.8968 ± 0.0022	0.859 ± 0.16
UniProt Q96Q05-3|Q96Q05 and related entries	0.996 ± 0.053	0.981 ± 0.033	0.986 ± 0.046	0.945 ± 0.061	0.976 ± 0.067	0.996 ± 0.058
VCPIP1 (UniProt Q96JH7)	1.03 ± 0.07	0.996 ± 0.045	1 ± 0.088	1.02 ± 0.072	1.01 ± 0.069	0.987 ± 0.037
UniProt Q96EV8 and related entries	0.971 ± 0.024	0.962 ± 0.026	0.9673 ± 0.0042	0.981 ± 0.047	0.951 ± 0.018	0.923 ± 0.041
UniProt Q96P50 and related entries	0.882 ± 0.049	0.996 ± 0.039	0.984 ± 0.04	0.99 ± 0.047	0.9762 ± 0.0034	1.062 ± 0.0011
UniProt Q96L93 and related entries	1.02 ± 0.013	1.01 ± 0.027	1.07 ± 0.037	1.03 ± 0.05	1.02 ± 0.057	1.05 ± 0.025
UniProt Q96GC9	0.905 ± 0.074	0.913 ± 0.15	0.905 ± 0.14	0.768 ± 0.044	0.903 ± 0.14	0.844 ± 0.03
UniProt Q96SD1 and related entries	0.945 ± 0.068	0.906 ± 0.092	0.947 ± 0.026	1 ± 0.028	0.944 ± 0.051	0.939 ± 0.0097
UniProt Q96EK5	0.957 ± 0.048	0.959 ± 0.031	0.952 ± 0.04	0.908 ± 0.088	0.949 ± 0.032	0.961 ± 0.044
UniProt Q96RP9 and related entries	1.01 ± 0.023	0.986 ± 0.05	0.97 ± 0.04	0.971 ± 0.076	0.972 ± 0.012	0.962 ± 0.032
RBM18 (UniProt Q96H35)	0.929 ± 0.093	0.9153 ± 0.0066	0.96 ± 0.11	0.887 ± 0.13	0.955 ± 0.022	0.898 ± 0.12
UniProt Q96MT7-2	0.984 ± 0.1	0.971 ± 0.06	1.08 ± 0.2	1.05 ± 0.22	1.04 ± 0.14	0.979 ± 0.074
NARS2 (UniProt Q96I59)	1.01 ± 0.12	0.998 ± 0.1	1.01 ± 0.11	0.929 ± 0.15	1.01 ± 0.068	0.994 ± 0.057
DCPS (UniProt Q96C86)	1 ± 0.027	0.974 ± 0.045	0.958 ± 0.044	1.01 ± 0.058	0.984 ± 0.069	0.937 ± 0.052
UniProt Q96BR5	0.946 ± 0.022	0.975 ± 0.019	0.971 ± 0.033	0.9869 ± 0.0064	0.949 ± 0.036	0.972 ± 0.041
ZFR (UniProt Q96KR1)	1.03 ± 0.04	1.02 ± 0.05	1.03 ± 0.052	1.09 ± 0.11	1.11 ± 0.071	1.14 ± 0.096

Target	NP40-soluble protein abundance (concentration: 1mM)	NP40-soluble protein abundance (concentration: 2mM)	NP40-soluble protein abundance (concentration: 4mM)	NP40-soluble protein abundance (concentration: 6mM)	NP40-soluble protein abundance (concentration: 8mM)	NP40-soluble protein abundance (concentration: 10mM)
UniProt Q96RN5 and related entries	0.958 ± 0.06	0.97 ± 0.11	0.988 ± 0.073	1.01 ± 0.18	0.995 ± 0.068	0.973 ± 0.11
UniProt Q96NC0	1.03 ± 0.063	1.06 ± 0.032	1.05 ± 0.028	1.12 ± 0.025	1.06 ± 0.024	1.11 ± 0.056
PDXP (UniProt Q96GD0)	0.957 ± 0.061	0.937 ± 0.032	0.924 ± 0.047	0.885 ± 0.11	0.908 ± 0.027	0.924 ± 0.042
PRRC1 (UniProt Q96M27)	0.919 ± 0.033	0.962 ± 0.016	0.91 ± 0.033	0.942 ± 0.03	0.8972 ± 0.0037	0.918 ± 0.034
UniProt Q96BX8	1.02 ± 0.098	0.986 ± 0.1	0.971 ± 0.1	0.933 ± 0.087	0.961 ± 0.088	0.956 ± 0.066
PWWP2A (UniProt Q96N64)	1 ± 0.059	0.98 ± 0.011	1.01 ± 0.044	1.02 ± 0.051	0.9706 ± 0.0049	1 ± 0.064
FAF2 (UniProt Q96CS3)	0.993 ± 0.044	0.985 ± 0.038	0.956 ± 0.014	1 ± 0.04	0.951 ± 0.022	0.965 ± 0.027
FAHD2A (UniProt Q96GK7)	1.03 ± 0.014	1.04 ± 0.014	1.012 ± 0.0076	1 ± 0.048	1 ± 0.014	0.985 ± 0.015
PCMTD1 (UniProt Q96MG8)	0.927 ± 0.026	0.897 ± 0.031	0.854 ± 0.054	0.853 ± 0.036	0.826 ± 0.074	0.844 ± 0.044
UniProt Q96Q89-3|Q96Q89 and related entries	1.04 ± 0.046	1.04 ± 0.046	1.01 ± 0.028	1.02 ± 0.065	0.967 ± 0.046	0.986 ± 0.057
UniProt Q96L92 and related entries	1 ± 0.099	0.993 ± 0.1	1.01 ± 0.069	0.94 ± 0.12	1.05 ± 0.063	1.02 ± 0.059
UniProt Q96BU1 and related entries	1.04 ± 0.14	1 ± 0.14	1.01 ± 0.19	0.997 ± 0.21	0.969 ± 0.19	1.05 ± 0.096
ZNF830 (UniProt Q96NB3)	1.16 ± 0.079	1.14 ± 0.056	1.11 ± 0.079	1.16 ± 0.11	1.1 ± 0.047	1.1 ± 0.069
UniProt Q96L73 and related entries	0.992 ± 0.11	1.11 ± 0.098	1.09 ± 0.13	1.17 ± 0.27	1.16 ± 0.35	1.3 ± 0.34
SNF8 (UniProt Q96H20)	1 ± 0.045	0.999 ± 0.029	1.03 ± 0.037	0.971 ± 0.033	1 ± 0.054	0.935 ± 0.068
ADO (UniProt Q96SZ5)	0.945 ± 0.013	0.978 ± 0.026	0.959 ± 0.016	0.919 ± 0.05	0.959 ± 0.019	0.941 ± 0.037
FAM111A (UniProt Q96PZ2)	1.22 ± 0.12	1.26 ± 0.13	1.3 ± 0.11	1.36 ± 0.2	1.35 ± 0.073	1.47 ± 0.18
HEXIM2 (UniProt Q96MH2)	1.04 ± 0.097	0.974 ± 0.075	0.969 ± 0.074	0.956 ± 0.12	0.986 ± 0.026	1.01 ± 0.035
UniProt Q96JK2 and related entries	0.9454 ± 0.0066	0.973 ± 0.033	0.964 ± 0.038	0.951 ± 0.012	0.951 ± 0.015	0.9691 ± 0.0092
SIN3A (UniProt Q96ST3)	1.06 ± 0.047	1.03 ± 0.028	1.02 ± 0.024	1.04 ± 0.046	1.08 ± 0.021	1.07 ± 0.038
